These results are taken from PubChem BioAssay AID624256 (NMMLSC, 2012).

The structures appear in SMILES notation. Some of the results follow. Some salts and complexes are drawn in separate pieces, as the source files them; their charges need not balance.

A short description of the assay: induction of myeloid progenitor differentiation, primary screen, cell-based, flow cytometry, MLPCN library (AID 624256).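 Further: cells exposed to compound for four days before flow analysis.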 Conditions: ER-HoxA9 myeloid progenitors, lysozyme-GFP differentiation, measured here: differentiation confirmed by MAC1 staining, at 10 µM, stronger effect = higher value.
Compound `CCOc1ccc(C2=NCC(CBr)S2)cc1` (configuration not stated) displayed a GFP+ MAC1+ double positive of 0.1%. In turn, `O=[N+]([O-])c1cc([N+](=O)[O-])c(Nc2ccc(Cl)cc2)c([N+](=O)[O-])c1` registered a GFP+ MAC1+ double positive of 0.6%.

Compound `O=P1(Nc2nc3ccc(Cl)cc3s2)COc2ccccc2O1` (configuration not stated) registered a GFP+ MAC1+ double positive of 0.7%. Compound `CC(C)c1ccc(OP(C)(=O)Nc2ccc(SC(F)(F)F)cc2)cc1` (configuration not stated) showed a GFP+ MAC1+ double positive of 0.3%. Compound `CC(C)(C)C(=O)NC(Sc1ccccc1)C(Cl)(Cl)Cl` (configuration not stated) registered a GFP+ MAC1+ double positive of 0.3%. The compound `CP(=O)(Nc1ccccc1F)Oc1ccccc1` (configuration not stated) displayed a GFP+ MAC1+ double positive of 2%. Then `CCc1cc(O)c([N+](=O)[O-])c(C)c1[N+](=O)[O-]`, with 0.5%. `C[C@H]1OP(=O)(Oc2ccccc2)C[C@@H]2O[C@@H]21` (some centres not stated): the GFP+ MAC1+ double positive is 1.6%.

In turn, `C[C@@H]1C=CCP(=O)(Oc2ccccc2)O1` (some centres not stated) had a GFP+ MAC1+ double positive of 0.3%.

In turn, `Cc1ccccc1CN(C)C(=O)COC(=O)C(O)(c1ccccc1)c1ccccc1` registered a GFP+ MAC1+ double positive of 0.7%. In turn, `O=C(OCCN1CCN(CCOCc2ccccc2)CC1)C(O)(c1ccccc1)c1ccccc1` yielded a GFP+ MAC1+ double positive of 0.9%. Turning to `COC(=O)C1(C)COP(=O)(NCc2ccccc2)OC1` (configuration not stated), the GFP+ MAC1+ double positive was 1%. For `O=C(OC1CN2CCC1CC2)c1ccc([N+](=O)[O-])cc1` (configuration not stated), the GFP+ MAC1+ double positive was 0.8%. With `CC(=O)c1ccc(N2CC2c2ccncc2)cc1` (configuration not stated), the GFP+ MAC1+ double positive turned out to be 0.2%. The same measure for `CC(=O)Nc1ccc(Oc2c([N+](=O)[O-])cc([N+](=O)[O-])cc2[N+](=O)[O-])cc1`: 0.4%; for `CC(=O)Nc1ccc([As](=O)(O)O)c(O)c1`: 0.1%. Consider `COc1ccc2c(c1O)-c1c(O)c(OC)cc3c1[C@H](C2)[N+](C)(C)CC3.O=[N+]([O-])c1cc([N+](=O)[O-])c([O-])c([N+](=O)[O-])c1[O-]`, for which the GFP+ MAC1+ double positive was found to be 0.8%. As to `Cc1ccc(NP(=O)(Oc2cccc(C)c2)Oc2cccc(C)c2)nc1`, the GFP+ MAC1+ double positive worked out at 0.5%. The compound `CCN(CC)CCCNc1ccccc1[N+](=O)[O-].O=[N+]([O-])c1cc([N+](=O)[O-])c(O)c([N+](=O)[O-])c1` gave a GFP+ MAC1+ double positive of 1%. `c1ccc(-c2nn[nH]n2)c(-c2nn[nH]n2)c1` had a GFP+ MAC1+ double positive of 0.2%. `COc1ccc(OP(C)(=O)Nc2ccc(SC(F)(F)F)cc2)cc1` (configuration not stated) had a GFP+ MAC1+ double positive of 0.3%. Compound `CCOC(=O)c1ccc(NP(C)(=O)Oc2ccc(F)cc2)cc1` (configuration not stated) came in with a GFP+ MAC1+ double positive of 0.1%. In turn, `O=P1(N(CCCl)CCCl)OCCC2CCCCN21` (configuration not stated) displayed a GFP+ MAC1+ double positive of 0.8%. With `CCN(CC)CCCOC(=O)C(O)(c1ccccc1)C1CCCCC1` (configuration not stated), the GFP+ MAC1+ double positive came out at 0.9%. For `CCC(=O)N1C2C3N(C(=O)CC)C1C1N(C(=O)CC)C(C(N1C(=O)CC)N3C(=O)CC)N2C(=O)CC`, the GFP+ MAC1+ double positive came to 1.2%. As to `O=C(OC1CN2CCC1CC2)c1ccccc1` (configuration not stated), the GFP+ MAC1+ double positive was 0.5%. `CC(=O)NC(SC(=S)N(CC(C)C)CC(C)C)C(Cl)(Cl)Cl` (configuration not stated) gave a GFP+ MAC1+ double positive of 0.2%. The compound `Cc1ccc(OP(=O)(Nc2ccccn2)Oc2ccc(C)cc2)cc1` came in with a GFP+ MAC1+ double positive of 0.2%.

For the compound `Cc1c([N+](=O)[O-])cc([N+](=O)[O-])c(Br)c1[N+](=O)[O-]`, the GFP+ MAC1+ double positive is 0.7%.

As to `COC(=O)c1cc2c(s1)N=C(c1ccccc1)N(C)P2(=O)N1CCOCC1` (configuration not stated), the GFP+ MAC1+ double positive is 0.7%. Take `O=[N+]([O-])c1cc([N+](=O)[O-])c(OC2CCCCC2O)c([N+](=O)[O-])c1` (configuration not stated): the GFP+ MAC1+ double positive was determined as 0.8%. The compound `CCCCCOc1ccc(NP(C)(=O)Oc2ccc(Cl)cc2Cl)cc1` (configuration not stated) showed a GFP+ MAC1+ double positive of 1.4%. Then `CN(C)C(=O)Oc1noc2ccccc12`, with 0.5%; and `CC(NC(=O)COC(=O)C(O)(c1ccccc1)c1ccccc1)c1ccccc1` (configuration not stated), with 0.7%; and `Cc1ccccc1OP(=O)(Nc1ccccn1)Oc1ccccc1C`, with 1%. Turning to `CP(=O)(Nc1ccccc1)Oc1ccc(F)cc1` (configuration not stated), the GFP+ MAC1+ double positive amounted to 11.6%. Then `O=P(Nc1ccccn1)(c1ccc(Br)cc1)c1ccc(Br)cc1`, with 0.4%; and `CN(C)C1(CNC(=O)c2ccc(Cl)c(S(N)(=O)=O)c2)CCCCC1`, with 0.3%; and `COc1ccc(N)c([N+](=O)[O-])c1[N+](=O)[O-]`, with 1.2%. Then `COc1ccc(OP(C)(=O)Nc2cccc(Br)c2)cc1` (configuration not stated), with 0.2%; and `COc1ccc(NP(C)(=O)Oc2ccccc2OC)cc1` (configuration not stated), with 0.7%. The compound `C[C@H]1OP(=O)(Oc2ccccc2)[C@H](O)[C@H](O)[C@H]1N=[N+]=[N-]` (some centres not stated) showed a GFP+ MAC1+ double positive of 2.1%. As for `CN(C)CCOC(=O)C(O)(c1ccccc1)C1CCCCC1` (configuration not stated), the GFP+ MAC1+ double positive came out at 0.9%.

`O=P(Nc1nc2ccccc2s1)(c1ccccc1)c1ccccc1`: the GFP+ MAC1+ double positive is 0.7%. Turning to `Cc1cc(-c2cccc3ccccc23)c(C)cn1.O=[N+]([O-])c1cc([N+](=O)[O-])c(O)c([N+](=O)[O-])c1`, the GFP+ MAC1+ double positive amounted to 0.6%. Then `O=[As](O)(c1ccccc1)c1ccc(O)cc1`, with 0.7%; and `O=[N+]([O-])c1ccc(O)c(/C=N/Nc2ccc([N+](=O)[O-])cc2[N+](=O)[O-])c1`, with 0.1%. For `O=[N+]([O-])c1ccc(OP2(=O)COCCO2)cc1` (configuration not stated), the GFP+ MAC1+ double positive was found to be 0.3%. For the compound `CC(=O)NC(SC(=S)N(C)C)C(Cl)(Cl)Cl` (configuration not stated), the GFP+ MAC1+ double positive was 0.3%. With `O=[N+]([O-])c1ncn(CCn2cnc([N+](=O)[O-])n2)n1`, the GFP+ MAC1+ double positive came out at 0.5%.

Turning to `O=C(OC1CN2CCC1CC2)c1cccc(Cl)c1` (configuration not stated), the GFP+ MAC1+ double positive was 0.4%. Regarding `C(Cc1nn[nH]n1)Cc1nn[nH]n1`, the GFP+ MAC1+ double positive was found to be 0.7%.

Take `Nc1ccc([As](=O)(O)c2ccc([N+](=O)[O-])cc2)cc1`: the GFP+ MAC1+ double positive worked out at 0.8%.

For `Cc1c(C(c2ccc3c(c2)OCO3)c2c(C)n(C)n(-c3ccccc3)c2=O)c(=O)n(-c2ccccc2)n1C.O=[N+]([O-])c1cc([N+](=O)[O-])c(O)c([N+](=O)[O-])c1`, the GFP+ MAC1+ double positive is 0.4%. `CC(C)C(=O)NC(Sc1ccccc1)C(Cl)(Cl)Cl` (configuration not stated) gave a GFP+ MAC1+ double positive of 0.4%. In the case of `O=P(Nc1nccs1)(c1ccccc1)c1ccccc1`, the GFP+ MAC1+ double positive was determined as 0.3%. Regarding `CP(=O)(Nc1ccc(SC(F)(F)F)cc1)Oc1ccc(F)cc1` (configuration not stated), the GFP+ MAC1+ double positive stood at 0.4%.

In turn, `c1nnnn1CCn1cnnn1` came in with a GFP+ MAC1+ double positive of 1.4%.

In turn, `CCOP(C)(=S)SCC(=O)NC(C)(CC)C(=O)O` (configuration not stated) showed a GFP+ MAC1+ double positive of 0.2%. `CP(=O)(Nc1ccc2c(c1)OCCO2)Oc1ccccc1` (configuration not stated) displayed a GFP+ MAC1+ double positive of 1%. Compound `O=[N+]([O-])c1cc([N+](=O)[O-])c(C(F)(F)F)c([N+](=O)[O-])c1O` returned a GFP+ MAC1+ double positive of 1%.

Compound `Cc1ccccc1NP(C)(=O)Nc1ccccc1C` had a GFP+ MAC1+ double positive of 0.1%.
